Data taken from PubChem BioAssay AID493014 (National Center for Advancing Translational Sciences (NCATS), 2011).
Among all 340,000 compounds or so, about 170 (0.05%) were called active. Inconclusive results, whose numbers are uncertain, are shown with a selection of clear calls. Calls follow the shape of the dose curve; as a rule, active = well fitted inhibition curve with a large enough effect in the signal ratio, with a control signal flat (not every such curve was filed as active); inconclusive = small, poorly fitted or top-dose-only effect, or effect the other way, or a change in a side signal; inactive = flat fitted curve, though single readings scatter; the % refers to the signal ratio. A potency beside an inconclusive call is a rough fit, not a confirmed value.

Experiment: qHTS Assay to Find Inhibitors of Chronic Active B-Cell Receptor Signaling;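 as to activity change, negative = inhibition: plate controls were basal doxycycline-induced cells for no effect and cells given 10 µM MG132 for full effect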
Conditions: ABC-DLBCL IkBa-CBG/CBR reporter, luminescence ratio (green luciferase fused to IkBa over red control in TMD8 lymphoma cells), 4 h; activity change, negative = inhibition: at 46.1 µM (top of the series)
How it was run: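 TMD8 human ABC-DLBCL cells with doxycycline-inducible IκBα–green luciferase fusion and unfused red luciferase, in 0.5% FBS medium; compounds up to 46 uM, 4 h at 37C. Green/red luminescence ratio, filter-overlap corrected, fitted to concentration-response curves.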
Potency is read from the fitted curve at half-maximal effect.

Row | Compound | Potency | activity change, negative = inhibition
1 | Cc1ccnc(NC(c2ccsc2)c2ccc3ccc(C)nc3c2O)c1 (stereo unspecified) | inconclusive: 10 µM [falling, partial curve] | –
2 | COc1ccc(CC2=CC(=O)c3ccccc3C2=O)cc1 | inconclusive: 3.98 µM [cytotoxic, single point] | –
3 | CCCCC(c1nnnn1CS(=O)(=O)c1ccc(C)cc1)N1CCN(C)CC1 (stereo unspecified) | inconclusive: 10 µM [falling, partial curve, poor fit] | –
4 | O=c1[nH]c(=O)n([C@H]2C[C@H](O)[C@@H](CO)O2)cc1Br | – | inconclusive: -0.33%
5 | COc1cc(OC)c(C2CC(=O)N3CN(C)CSC3=C2C#N)cc1OC (stereo unspecified) | – | inactive: 0.639%
6 | COc1ccc(CN2CCN(c3ccccn3)CC2)c(OC)c1C | – | inactive: -12.8%
7 | COc1ccc(Br)c(C(=O)OCC(=O)NC(=O)NC2CCCC2)c1 | inconclusive: 14.6 µM [falling, single point] | –
8 | CCc1nnc(NC(=O)c2ccc(OCc3c(C)noc3C)c(OC)c2)s1 | – | inconclusive: -5.52%
9 | COC1=C(N)C(=O)c2nc(-c3nc(C(=O)O)c(C)c(-c4ccc(OC)c(OC)c4O)c3N)ccc2C1=O | inconclusive: 2.82 µM [activator, full curve, poor fit] | –
10 | C(=N\NCc1ccccc1)/c1ccc2ncccc2c1 | – | inactive: -18.6%
11 | O=C(Nc1ccc(F)cc1)c1csc(Cc2ccccc2)n1 | – | inconclusive: 3.11%
12 | Cc1cc2c(c(C)c1Br)C(c1ccc3c(c1)OCO3)CC(=O)O2 (stereo unspecified) | – | inconclusive: -9.95%
13 | CN(C)c1ccc(/C=N/Nc2cccc(C(=O)O)c2)cc1 | inconclusive: 17.8 µM [falling, partial curve] | –
14 | CC/C(=N\NC(=O)c1ccoc1C)c1ccc(C)o1 | inconclusive: 20.6 µM [falling, partial curve] | –
15 | CCCCC(=O)Nc1ccc(C(=O)N2CCN(C)CC2)cc1 | – | inconclusive: 3.64%
16 | Cc1ccc(C(=O)N2CCCN(c3nc4cc5c(cc4cc3C#N)OCO5)CC2)cc1 | inconclusive: 11.2 µM [falling, partial curve] | –
17 | COc1cccc(CNC(=O)CN2C(=O)CCSc3ccc(S(=O)(=O)N4CCCC4)cc32)c1 | – | inactive: -1.72%
18 | CCc1c(C)sc(NC(=O)OC)c1C(N)=O | – | inconclusive: -12%
19 | CCN(CC)C(=O)c1[nH]cnc1C(=O)N[C@@H](CCCCNC(=O)OC(C)(C)C)C(=O)OC(C)(C)C | – | inconclusive: 2.36%
20 | COc1ccc(S(=O)(=O)N(C)CC(=O)NCc2cccnc2)cc1OC | – | inactive: -20.8%
21 | COc1ccc(OC)c(NC(=O)COc2ccc(Br)cc2)c1 | – | inconclusive: 5.85%
22 | O=C(Nc1nc2c(F)c(F)c(F)cc2s1)c1ccco1 | – | inconclusive: 1.68%
23 | CC1CN(C(=O)c2ccccc2C(=O)c2ncc[nH]2)CC(C)O1 (stereo unspecified) | – | inconclusive: -1.22%
24 | COc1ccc(/C=N/NC(=O)c2ccc3nc[nH]c3c2)cc1OC | – | inconclusive: 2.39%
25 | CCNS(=O)(=O)c1ccc(NC(=O)Cn2cc([N+](=O)[O-])cn2)cc1 | – | inactive: 1.85%
26 | COc1ccc2occ(C(=O)c3ccc(N)cc3)c2c1 | inconclusive: 17.8 µM [falling, partial curve, poor fit] | –

Row | Compound | Potency | activity change, negative = inhibition
27 | O=C1CC(=O)Nc2cc(S(=O)(=O)N3CCN(c4cccc(C(F)(F)F)c4)CC3)ccc2N1 | inconclusive: 20 µM [falling, partial curve, poor fit] | –
28 | CCOc1ccccc1N1CCN(C(=O)Nc2cccc(Cl)c2)CC1 | – | inconclusive: 4.31%
29 | O=C(Nc1cc(Cl)cc(Cl)c1)c1cc(S(=O)(=O)N2CCC3(CC2)OCCO3)ccc1F | – | inactive: -0.248%
30 | O=C1CCCC/C1=C/Nc1ccc2c(c1)OCO2 | – | inconclusive: -0.641%
31 | CCOc1ccccc1C(=O)NC(C(=O)OCC(=O)Nc1nnc(-c2ccccc2)o1)C(C)C (stereo unspecified) | – | inactive: -0.997%
32 | O=C(CCc1nc(-c2ccccc2)no1)Nc1cc(C(F)(F)F)ccc1Cl | – | inconclusive: 16.7%
33 | COc1ccc(NC(=O)C2C3C=CC4(O3)C2C(=O)N(CCN2CCCCC2C)C4C(=O)NC2CCCC(C)C2C)cc1 (stereo unspecified) | – | inconclusive: 8.9%
34 | Cn1c(=O)n(C)c2cc(S(=O)(=O)NCc3ccccc3)ccc21 | – | inactive: -1.24%
35 | O=C(NC(=S)Nc1ccc(Cc2ccncc2)cc1)c1ccccc1F | inconclusive: 28.2 µM [falling, single point] | –
36 | COc1ccc(CCNC(=O)c2cc(=O)[nH]c3ccc(S(=O)(=O)N4CCCCC4C)cc23)cc1OC (stereo unspecified) | inconclusive: 5.62 µM [falling, full curve] | –
37 | Cc1ccc(NC(=O)CSc2ccc3c(c2)OCCO3)nc1 | – | inconclusive: -0.274%
38 | COc1cc(NC(C)CCCN)c2ncccc2c1 (stereo unspecified) | – | inconclusive: 9.16%
39 | COc1cc(CCC(=O)OCC(=O)Nc2ccc(C(N)=O)cc2)cc(OC)c1OC | – | inconclusive: -0.154%
40 | Cc1ccc(-n2nnc(-c3cccnc3Cl)n2)cc1 | – | inconclusive: 9.8%
41 | O=C(CC1CCCC1)Nc1ccc2c(c1)CCC2 | – | inconclusive: -4.69%
42 | Cc1ccc(Cn2c(O)c(N=O)c3ccccc32)cc1 | inconclusive: 12.6 µM [falling, partial curve, poor fit] | –
43 | CN1Cc2sc(NC(=S)NC(=O)c3ccccc3)c(C#N)c2CC1(C)C | inconclusive: 35.5 µM [falling, single point] | –
44 | N#CC1=C(S)N(c2ccccc2)C(c2cccs2)NC1=O (stereo unspecified) | inconclusive: 20.6 µM [falling, single point] | –
45 | Cc1ccc(NCN2C(=O)C3C4C=CC(C4)C3C2=O)cc1 (stereo unspecified) | – | inconclusive: 5.14%
46 | O=c1ccc2cc(S(=O)(=O)Nc3ccc(Br)cc3)ccc2o1 | – | inactive: 2.65%
47 | COc1cc(C2Nc3ccc4ncccc4c3C3=C2C(=O)CC(C)(C)C3)cc(OC)c1O (stereo unspecified) | inconclusive: 25.9 µM [falling, single point] | –
48 | O=Cc1cccn1Cc1ccc(Cl)cc1Cl | – | inactive: 10.7%
49 | COc1ccc(C2c3cccn3CCN2S(=O)(=O)c2ccccc2[N+](=O)[O-])cc1OC (stereo unspecified) | – | inconclusive: 2.46%
50 | c1cnc(N2CCN(c3nc4ccccc4n4cnnc34)CC2)nc1 | – | inactive: 9.55%
51 | Cc1ccc(C2CCN(C(=S)Nc3cccc(Cl)c3)C2)cc1 (stereo unspecified) | – | inconclusive: 12.8%

Sorted by number of heavy atoms (rising): part of the list above.
Row | Compound | Potency | activity change, negative = inhibition
48 | O=Cc1cccn1Cc1ccc(Cl)cc1Cl | – | inactive: 10.7%
41 | O=C(CC1CCCC1)Nc1ccc2c(c1)CCC2 | – | inconclusive: -4.69%
45 | Cc1ccc(NCN2C(=O)C3C4C=CC(C4)C3C2=O)cc1 (stereo unspecified) | – | inconclusive: 5.14%
51 | Cc1ccc(C2CCN(C(=S)Nc3cccc(Cl)c3)C2)cc1 (stereo unspecified) | – | inconclusive: 12.8%
32 | O=C(CCc1nc(-c2ccccc2)no1)Nc1cc(C(F)(F)F)ccc1Cl | – | inconclusive: 16.7%
29 | O=C(Nc1cc(Cl)cc(Cl)c1)c1cc(S(=O)(=O)N2CCC3(CC2)OCCO3)ccc1F | – | inactive: -0.248%
47 | COc1cc(C2Nc3ccc4ncccc4c3C3=C2C(=O)CC(C)(C)C3)cc(OC)c1O (stereo unspecified) | inconclusive: 25.9 µM [falling, single point] | –
36 | COc1ccc(CCNC(=O)c2cc(=O)[nH]c3ccc(S(=O)(=O)N4CCCCC4C)cc23)cc1OC (stereo unspecified) | inconclusive: 5.62 µM [falling, full curve] | –
33 | COc1ccc(NC(=O)C2C3C=CC4(O3)C2C(=O)N(CCN2CCCCC2C)C4C(=O)NC2CCCC(C)C2C)cc1 (stereo unspecified) | – | inconclusive: 8.9%
